Assay [1] concerns the target Lingo-2-YFP (human) (UniProt Q7L985). Kind of assay: BRET saturation in live HEK-293 cells, 96-well plates. Background: In BRET a luciferase serves as donor, and the signal depends on an acceptor being close.
The target in assay [2] is Lingo-1 of rat cortical neurons (rat). Kind of assay: DSP chemical bridging of live rat cortical neurons, anti-Lingo-1 Western blot. For orientation: Immunoblotting shows a protein as a band on a membrane.
The target in assay [3] is Lingo-1-eYFP (human). Kind of assay: coimmunoprecipitation from cotransfected HEK-293 cells, anti-HA beads, anti-YFP Western blot.

By UniProt entry, the sequences of proteins in these tests, tags left out. Where a name states a change or a piece, a line headed by the entry shows the natural chain unless it says otherwise. Chains listed by the source or under a name are the forms on record and can include a tag or linker.
UniProt Q7L985: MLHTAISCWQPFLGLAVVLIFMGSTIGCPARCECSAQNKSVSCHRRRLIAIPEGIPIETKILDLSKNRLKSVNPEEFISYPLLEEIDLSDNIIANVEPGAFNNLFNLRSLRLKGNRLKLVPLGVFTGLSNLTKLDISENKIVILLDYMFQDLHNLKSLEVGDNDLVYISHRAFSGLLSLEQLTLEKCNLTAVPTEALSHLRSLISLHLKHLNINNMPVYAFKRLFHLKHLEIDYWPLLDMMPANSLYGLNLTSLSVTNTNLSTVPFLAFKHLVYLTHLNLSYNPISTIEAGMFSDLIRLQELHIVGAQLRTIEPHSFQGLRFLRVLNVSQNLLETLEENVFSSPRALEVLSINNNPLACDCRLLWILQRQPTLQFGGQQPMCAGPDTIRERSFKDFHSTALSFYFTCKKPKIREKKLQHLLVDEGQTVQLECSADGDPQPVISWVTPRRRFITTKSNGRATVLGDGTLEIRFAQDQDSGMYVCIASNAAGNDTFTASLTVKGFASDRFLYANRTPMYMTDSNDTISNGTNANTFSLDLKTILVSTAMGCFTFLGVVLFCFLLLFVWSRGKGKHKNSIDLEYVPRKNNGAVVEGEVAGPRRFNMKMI
Lingo-1 of rat cortical neurons (A0A8I5ZPI2, form named): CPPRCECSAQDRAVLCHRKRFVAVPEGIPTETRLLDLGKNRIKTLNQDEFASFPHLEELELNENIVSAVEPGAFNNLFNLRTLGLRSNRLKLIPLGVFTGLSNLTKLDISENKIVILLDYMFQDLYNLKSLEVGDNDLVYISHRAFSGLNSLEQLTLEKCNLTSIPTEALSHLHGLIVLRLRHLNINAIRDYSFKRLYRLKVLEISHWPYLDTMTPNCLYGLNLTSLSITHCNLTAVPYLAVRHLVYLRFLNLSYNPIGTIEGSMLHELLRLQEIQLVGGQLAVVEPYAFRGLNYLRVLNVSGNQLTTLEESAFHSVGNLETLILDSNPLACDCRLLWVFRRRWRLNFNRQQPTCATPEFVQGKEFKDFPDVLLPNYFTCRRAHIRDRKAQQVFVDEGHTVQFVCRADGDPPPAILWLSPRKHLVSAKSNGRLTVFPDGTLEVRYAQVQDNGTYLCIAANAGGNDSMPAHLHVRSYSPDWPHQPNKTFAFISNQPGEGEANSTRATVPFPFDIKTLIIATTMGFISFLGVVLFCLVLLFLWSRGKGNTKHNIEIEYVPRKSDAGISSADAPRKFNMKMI
UniProt Q96FE5: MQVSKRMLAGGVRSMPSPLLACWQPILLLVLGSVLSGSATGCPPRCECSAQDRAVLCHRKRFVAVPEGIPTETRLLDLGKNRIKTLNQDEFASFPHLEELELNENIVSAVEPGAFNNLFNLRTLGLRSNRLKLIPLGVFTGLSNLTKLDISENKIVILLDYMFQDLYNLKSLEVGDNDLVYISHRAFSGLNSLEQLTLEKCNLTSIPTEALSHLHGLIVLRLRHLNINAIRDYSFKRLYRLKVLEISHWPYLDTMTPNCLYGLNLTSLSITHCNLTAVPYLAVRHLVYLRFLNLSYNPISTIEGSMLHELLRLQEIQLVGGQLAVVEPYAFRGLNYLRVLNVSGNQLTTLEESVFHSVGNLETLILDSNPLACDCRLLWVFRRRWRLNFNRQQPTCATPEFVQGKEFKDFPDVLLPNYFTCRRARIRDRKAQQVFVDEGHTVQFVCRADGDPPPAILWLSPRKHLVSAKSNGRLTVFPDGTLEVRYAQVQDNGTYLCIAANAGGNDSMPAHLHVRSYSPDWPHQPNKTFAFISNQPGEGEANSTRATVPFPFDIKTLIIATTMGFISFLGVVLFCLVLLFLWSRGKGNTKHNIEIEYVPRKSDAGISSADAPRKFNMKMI

These are yes or no findings as the source states them, for the method shown. For part of these data: In cells and extracts the contact can be indirect. Some entries that bind do so weakly or less than the wild type.

As to “Lingo-2-RLuc (from UniProt Q7L985 28-606)”, in assay [1], the binding result was “binds”.

As for “Lingo-1 of rat cortical neurons (from UniProt A0A8I5ZPI2 36-614) (receptor)”, the binding entry in assay [2] was “binds”.

As to “Lingo-1-HA (from UniProt Q96FE5 42-620) (receptor)”, in assay [3], the binding result was “binds”.

For the origin of these results see US20130090249A1.
